Assay results reported in PMC9714380.
No constants are given. Whether binding was seen depends on the method and setting. Some entries that bind do so weakly or less than the wild type.

Amino acid sequences for entries named in this document (tags omitted). Residues count along the entry.
UniProt Q07011, residues 24-255: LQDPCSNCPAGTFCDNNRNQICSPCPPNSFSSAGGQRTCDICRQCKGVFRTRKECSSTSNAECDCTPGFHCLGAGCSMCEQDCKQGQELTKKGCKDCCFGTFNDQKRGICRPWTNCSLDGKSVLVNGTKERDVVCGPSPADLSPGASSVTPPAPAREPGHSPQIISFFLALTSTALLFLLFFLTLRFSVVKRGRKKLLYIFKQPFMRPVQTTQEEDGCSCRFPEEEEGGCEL
UniProt P41273, residues 50-254: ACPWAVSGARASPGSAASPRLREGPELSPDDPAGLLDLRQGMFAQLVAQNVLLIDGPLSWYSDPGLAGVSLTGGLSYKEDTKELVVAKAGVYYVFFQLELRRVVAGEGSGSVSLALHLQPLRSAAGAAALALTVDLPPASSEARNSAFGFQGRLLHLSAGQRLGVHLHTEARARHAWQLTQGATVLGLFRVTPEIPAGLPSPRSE

Biological target: human CD137 on CHOK1-hCD137 cells (human) (UniProt Q07011)
Assay: flow cytometry on cells; receptor blocking assay: 2 x 10^5 CHOK1-hCD137 cells per well with CD137L-hFc-Biotin and serially diluted anti-CD137 antibody, 4 °C for 1 h, FACS buffer (PBS + 2% FBS); detected with streptavidin-Alexa Fluor 488; only the binder purified

With “CD137L-hFc-Biotin (from UniProt P41273 50-254) (Fc fusion)” the binding was “binds”.
